Results are given in words; binding and its absence hold for the method and conditions named. Some results given as binding are weak or reduced against the parent protein; the word gives no strength.

Chains of the proteins cited; added tags and fusions are not shown. Residues count along the entry.
UniProt P08195, residues 102-630: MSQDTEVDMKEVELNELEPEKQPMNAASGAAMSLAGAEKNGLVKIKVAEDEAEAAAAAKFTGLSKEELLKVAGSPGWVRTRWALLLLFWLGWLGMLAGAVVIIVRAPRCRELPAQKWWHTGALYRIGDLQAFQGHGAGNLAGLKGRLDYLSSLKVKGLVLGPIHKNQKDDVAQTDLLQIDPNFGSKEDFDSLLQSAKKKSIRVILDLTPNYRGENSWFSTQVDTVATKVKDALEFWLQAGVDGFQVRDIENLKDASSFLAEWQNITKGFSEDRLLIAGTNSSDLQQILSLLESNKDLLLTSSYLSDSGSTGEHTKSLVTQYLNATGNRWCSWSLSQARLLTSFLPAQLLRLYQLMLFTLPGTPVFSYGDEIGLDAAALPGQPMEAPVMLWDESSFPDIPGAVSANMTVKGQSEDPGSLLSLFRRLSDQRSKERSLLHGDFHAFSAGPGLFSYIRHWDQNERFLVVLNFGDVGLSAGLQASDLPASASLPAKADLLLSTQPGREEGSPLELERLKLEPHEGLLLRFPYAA

This assay deals with 4F2 cell-surface antigen heavy chain (4F2hc), human (human) (UniProt P08195). In words: cryo-EM structure; recombinant LAT2-4F2hc complex after two-step affinity purification, incubated with Leu or Trp; inward-open conformation; 2.9 Å (Leu) and 3.4 Å (Trp); both purified.

B1: L-type amino acid transporter 2 (LAT2), human (protein, UniProt Q9UHI5 2-535)
chain: EEGARHRNNTEKKHPGGGESDASPEAGSGGGGVALKKEIGLVSACGIIVGNIIGSGIFVSPKGVLENAGSVGLALIVWIVTGFITVVGALCYAELGVTIPKSGGDYSYVKDIFGGLAGFLRLWIAVLVIYPTNQAVIALTFSNYVLQPLFPTCFPPESGLRLLAAICLLLLTWVNCSSVRWATRVQDIFTAGKLLALALIIIMGIVQICKGEYFWLEPKNAFENFQEPDIGLVALAFLQGSFAYGGWNFLNYVTEELVDPYKNLPRAIFISIPLVTFVYVFANVAYVTAMSPQELLASNAVAVTFGEKLLGVMAWIMPISVALSTFGGVNGSLFTSSRLFFAGAREGHLPSVLAMIHVKRCTPIPALLFTCISTLLMLVTSDMYTLINYVGFINYLFYGVTVAGQIVLRWKKPDIPRPIKINLLFPIIYLLFWAFLLVFSLWSEPVVCGIGLAIMLTGVPVYFLGVYWQHKPKCFSDFIELLTLVSQKMCVVVYPEVERGSGTEEANEDMEEQQQPMYQPTPTKDKDVAGQPQP
For the molecule B1, the binding entry is reported as “binds”.

Source of the values: article PMC7653941.
